Several values for one entry are separate records, joined by “and”; a condition that tells them apart may be missing. Equal entries are not always repeated. The whole screen tested about 580,000 compounds, of which about 6,100 (1.1%) were called active. This list was built around the results that the source calls inconclusive (neither active nor inactive); the mix of calls is not that of the screen. Calls come from the whole dose curve; as a rule, active = well fitted inhibition curve with a large enough effect; inconclusive = small, poorly fitted or top-dose-only effect, or another doubt; inactive = no such curve, though single readings can be large or run the other way. Potencies beside an inconclusive call are fits to weak or partial responses and may not hold up.
What follows are molecules tested against Polyunsaturated fatty acid lipoxygenase ALOX12 (Homo sapiens) (UniProt P18054) (assay: Primary qHTS assay for inhibitors of human arachidonate 12S-lipoxygenase (ALOX12): Round 2). Conditions: purified 12hLO, xylenol orange hydroperoxide absorbance; series mostly up to 108 µM.
Method in brief: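 Purified human 12hLO at 150 nM in 25 mM Hepes, 0.01% Triton X-100, pH 7.0, preincubated 15 min at room temperature with compound. Reaction started with 40 uM arachidonic acid, 30 min at room temperature. Hydroperoxide measured by Fe-xylenol orange, 573/405 nm absorbance ratio.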
Potency is the fitted concentration of half-maximal effect.

Sequences of proteins named here, by UniProt entry; tags and fusion partners are left off. A change or cut given only in a name is not applied to a line headed by its entry.
UniProt P18054: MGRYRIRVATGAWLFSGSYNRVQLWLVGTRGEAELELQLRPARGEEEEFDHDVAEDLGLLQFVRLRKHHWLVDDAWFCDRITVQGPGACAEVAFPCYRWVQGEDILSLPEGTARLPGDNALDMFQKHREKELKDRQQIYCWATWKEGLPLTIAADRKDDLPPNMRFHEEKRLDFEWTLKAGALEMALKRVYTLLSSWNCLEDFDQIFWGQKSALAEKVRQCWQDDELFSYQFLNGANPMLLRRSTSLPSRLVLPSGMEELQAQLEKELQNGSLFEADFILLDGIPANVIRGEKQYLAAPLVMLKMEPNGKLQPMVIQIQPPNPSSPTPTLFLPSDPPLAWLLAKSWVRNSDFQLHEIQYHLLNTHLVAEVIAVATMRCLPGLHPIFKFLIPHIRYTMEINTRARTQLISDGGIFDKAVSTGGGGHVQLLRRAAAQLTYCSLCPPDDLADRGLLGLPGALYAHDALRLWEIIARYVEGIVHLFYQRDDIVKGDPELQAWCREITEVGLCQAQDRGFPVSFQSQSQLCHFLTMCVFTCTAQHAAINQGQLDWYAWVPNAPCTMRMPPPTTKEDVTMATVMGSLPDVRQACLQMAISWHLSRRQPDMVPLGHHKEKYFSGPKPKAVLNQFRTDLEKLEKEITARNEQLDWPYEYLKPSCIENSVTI

SMILES	Potency
COc1ccc(CCNC(=O)c2ccccc2)cc1	inactive
CC(C)NC(=O)N(Cc1ccccc1)Cc1cccs1	inconclusive: 126 µM [inhibitor, single point]
COCCCn1c(C)cc(C(=O)N2CCC(CCOc3ccccc3)C2)c1C (stereo not drawn)	inconclusive: 12.6 µM [inhibitor, partial curve]
CN1CCN(C(=O)c2cn(C)c3ccccc23)C(c2ccccc2)C1 (stereo not drawn)	inactive
COc1ccc(CCNC(=O)CCSCc2ccccc2F)cc1OC	inactive
CCOc1ccc(CN2CCc3nc(N4CCN(c5ccccc5OC)CC4)ncc3C2)cc1OC	inconclusive: 44.7 µM [inhibitor, partial curve, poor fit]
COc1ccc(Nc2nc3ccccc3nc2NS(=O)(=O)c2ccccc2)cc1Cl	inconclusive: 3.55 µM [inhibitor, full curve, poor fit]
COc1cccc(COc2ccc3c(=O)c(Oc4ccccc4OC)coc3c2)c1	inactive
CCOc1ccc(C(c2nnnn2Cc2ccccc2)N2CCN(C(=O)c3ccco3)CC2)cc1 (stereo not drawn)	inconclusive: 44.7 µM [inhibitor, partial curve]
CCCC(NC(N)=O)C(=O)N1CCN(S(=O)(=O)c2ccc(OC)cc2)CC1 (stereo not drawn)	inconclusive: 100 µM [inhibitor, single point]
Cc1ccc(-c2nc(SCc3cc(=O)n4nc(C5CC5)sc4n3)n[nH]2)cc1	inconclusive: 39.8 µM [inhibitor, partial curve, poor fit]
COc1ccc(C2/C(=C(\O)c3ccc(C)cc3)C(=O)C(=O)N2CCCO)cc1 (stereo not drawn)	active: 0.562 µM
CN(C)S(=O)(=O)c1ccc(NC(=O)CN2CCN(C(c3ccccc3)c3ccccc3)CC2)cc1	inactive
COc1cc(/C=C(\C#N)C(=O)NCC2CCCO2)ccc1O (stereo not drawn)	inactive
CCOC(=O)c1cc(CC)sc1N1C(=O)CC(Sc2ccccc2C(=O)O)C1=O (stereo not drawn)	inconclusive: 50.1 µM [inhibitor, partial curve, poor fit]
O=S1(=O)N[C@H](Cc2ccccc2)COc2cccc(N3CCCCC3)c21	inactive
O=C(NC(NC(=O)c1ccccc1)C(Cl)Cl)c1ccccc1	inconclusive: 89.1 µM [inhibitor, single point]
Cn1cc(CN2CCN(CCO)CC2)c(-c2ccc(Oc3ccccc3)cc2)n1	inactive
CCNC(=O)CSc1nc(-c2ccccc2)c(-c2ccccc2)o1	inconclusive: 112 µM [inhibitor, single point]
CCCOc1cccc(C(=O)Nc2scc(-c3ccc(OC)c(OC)c3)c2C(=O)OC)c1	inactive
O=C1NC2(CCN(C(=O)c3cccnc3)CC2)Oc2ccccc21	inactive
O=C(OCc1ccc(Br)cc1)c1cc([N+](=O)[O-])ccc1N1CCOCC1	inactive
O=C(NCCCN1CCCCC1)c1sc2ncccc2c1-n1cccc1	inactive

Looked up by structure from the list above (5):
SMILES	Potency
CCCC(NC(N)=O)C(=O)N1CCN(S(=O)(=O)c2ccc(OC)cc2)CC1 (stereo not drawn)	inconclusive: 100 µM [inhibitor, single point]
O=C(NCCCN1CCCCC1)c1sc2ncccc2c1-n1cccc1	inactive
CCNC(=O)CSc1nc(-c2ccccc2)c(-c2ccccc2)o1	inconclusive: 112 µM [inhibitor, single point]
COc1ccc(CCNC(=O)c2ccccc2)cc1	inactive
CCOc1ccc(CN2CCc3nc(N4CCN(c5ccccc5OC)CC4)ncc3C2)cc1OC	inconclusive: 44.7 µM [inhibitor, partial curve, poor fit]

More records follow:

SMILES	Potency
NS(=O)(=O)c1ccc(NN=C2c3ccccc3-c3ccccc32)c([N+](=O)[O-])c1	inconclusive: 126 µM [inhibitor, partial curve, poor fit]
CCN1CCN(c2ccc(N3CCN(S(=O)(=O)c4cc([N+](=O)[O-])ccc4C)CC3)nn2)CC1	inconclusive: 70.8 µM [inhibitor, partial curve, poor fit]
CCOc1ccc(S(=O)(=O)Nc2nc3ccccc3nc2N2CCC(O)CC2)cc1	inactive
Cc1cc2cc(CN(Cc3cccs3)C(=S)NCc3ccco3)c(=O)[nH]c2cc1C	inconclusive: 17.8 µM [inhibitor, partial curve]
COC(=O)c1ccc(COC(=O)c2cc(F)c(F)cc2Cl)cc1	inactive
COCCNC(=O)C1CCCN(C2CCN(C(=O)c3ccc(=O)[nH]n3)CC2)C1 (stereo not drawn)	inconclusive: 31.6 µM [inhibitor, partial curve]
CCOC(=O)C(=O)C1C(=O)Nc2ccccc21 (stereo not drawn)	inconclusive: 3.55 µM [inhibitor, full curve, poor fit]
CCN1CC2(CCN(Cc3cnn(-c4ccc(F)cc4)c3)CC2)CC1=O	inactive
Oc1c(C2=NCCNC(C(F)(F)F)=C2)ccc2ccccc12	inconclusive: 100 µM [inhibitor, partial curve, poor fit]
CSc1ccccc1C(=O)OCC(=O)N1CCCCCC1	inactive
COC(=O)c1ccc(-n2nc(C(F)(F)F)c3c2-c2ccoc2CC3)cc1	inconclusive: 50.1 µM [inhibitor, partial curve, poor fit]
Cc1cc2oc(=O)cc(CN(C)CCOc3ccccc3F)c2cc1Cl	inconclusive: 56.2 µM [inhibitor, partial curve, poor fit]
Cc1cc(=O)[nH]c(SCC(=O)O)c1C#N	inconclusive: 100 µM [inhibitor, single point]
CC(=O)Cn1nnc2sc(-c3ccccc3)cc2c1=O	inconclusive: 14.1 µM [inhibitor, partial curve, poor fit] and inconclusive: 100 µM [inhibitor, single point]
CCN(CC)CC(=O)Nc1ccc2c(c1)Nc1ccccc1CC2	inconclusive: 14.1 µM [inhibitor, partial curve, poor fit]
O=C(CN1CCN(c2ncccn2)CC1)N(Cc1ccccc1)c1ccc(F)cc1	inconclusive: 0.794 µM [inhibitor, full curve, poor fit]
CC1(C)CC(N(Cc2cccs2)C(=O)c2ccco2)CCO1 (stereo not drawn)	inconclusive: 25.1 µM [inhibitor, partial curve, poor fit]
O=C(Nc1ccc2ccc(=O)oc2c1)C1=Cc2ccccc2OC=C1	inactive
CN(C(=O)COC(=O)CCC(=O)c1ccccc1)c1c(N)n(Cc2ccccc2)c(=O)[nH]c1=O	inconclusive: 35.5 µM [inhibitor, partial curve, poor fit]
CN(CC(=O)NC(C)(C)C)C(=O)c1cc2ccccc2oc1=O	inconclusive: 39.8 µM [inhibitor, single point]
Cc1cc(C(=O)N/N=C/c2c(C)[nH]n(-c3ccccc3)c2=O)n[nH]1	inconclusive: 44.7 µM [inhibitor, partial curve, poor fit]
c1ccc(-c2nc(-c3nccc4ccccc34)oc2-c2ccccc2)cc1	inconclusive: 44.7 µM [inhibitor, partial curve, poor fit]
CCN(CC)S(=O)(=O)c1ccc(Sc2nnc(C)s2)nc1	inactive

SMILES	Potency
Cc1cc(C)cc(CC(=O)N2CCC2(C)C(=O)NS(=O)(=O)c2ccc(Cl)s2)c1 (stereo not drawn)	inconclusive: 14.1 µM [inhibitor, full curve]
COc1cccc(CNCCO)c1OCc1ccc(Cl)cc1	inactive
CCc1ccc(CN2CCN(C(=O)c3cccc(OC)c3OC)CC2)cc1	inconclusive: 1 µM [inhibitor, full curve, poor fit]
O=[N+]([O-])c1ccc(S(=O)(=O)N/N=C/c2ccsc2)cc1	inconclusive: 79.4 µM [inhibitor, partial curve, poor fit]
NC(=S)NN=C1Cc2cccc3cccc1c23	inconclusive: 15.8 µM [inhibitor, full curve, poor fit]
CCOC(=O)c1cccn1C1C(=O)N(Cc2ccc(C(C)C)cc2)c2ccc(OC(F)(F)F)cc21 (stereo not drawn)	inconclusive: 44.7 µM [inhibitor, partial curve, poor fit]
O=[N+]([O-])c1ccccc1/C=N/Nc1nccnc1Cl	inactive
COc1ccc(Oc2ncc3ncc(=O)n(Cc4ccc(F)cc4)c3n2)cc1	inconclusive: 35.5 µM [inhibitor, single point]
Cc1nc2c(OCc3ccc(F)c(F)c3)cccn2c1N(C)C(=O)CCC1CCCC1	inconclusive: 22.4 µM [inhibitor, partial curve, poor fit]
O=C(Nn1c(-c2ccc(Br)cc2)nc2ccccc2c1=O)c1ccc([N+](=O)[O-])cc1	inactive
CCN(CC)Cc1ccccc1CNC(=O)c1cc2ccccc2oc1=O	inactive
CCc1cccc(CC)c1NC(=O)c1cc(S(=O)(=O)N2CCc3ccccc32)cn1C	inactive
Clc1cc(Br)ccc1OCCOCCN1CCOCC1	inconclusive: 0.355 µM [inhibitor, full curve, poor fit]
CN(C)S(=O)(=O)c1ccc(C(=O)Nc2nnc(SCC(=O)N3CCOCC3)s2)cc1	inactive
N=c1n(Cc2ccc(Cl)cc2)c2ccccc2n1CC(O)COc1ccccc1 (stereo not drawn)	inconclusive: 63.1 µM [inhibitor, partial curve, poor fit]
N#CC(Cc1ccc(Cl)cc1)(Cc1ccc(Cl)cc1)C(=O)NC1CCCCC1	inconclusive: 56.2 µM [inhibitor, partial curve, poor fit]
CCCNC(=O)NC(=O)CSc1nc(-c2ccco2)nc2ccccc12	inconclusive: 100 µM [inhibitor, single point]
Cc1nc2nc(NCc3c(F)cccc3Cl)[nH]n2c(=O)c1Cl	inactive
O=C(Nc1ncn(Cc2cccc(Cl)c2)n1)c1ccn(COc2ccc(Cl)cc2)n1	inconclusive: 12.6 µM [inhibitor, full curve]
CCc1cccc2c(C(=O)CSc3nncn3C)c[nH]c12	inconclusive: 39.8 µM [inhibitor, partial curve, poor fit]
CCOC(=O)/C=C(/C)N1N=C(c2ccc(OC)cc2)CC1c1cccc([N+](=O)[O-])c1 (stereo not drawn)	inconclusive: 0.631 µM [inhibitor, full curve, poor fit]
CCOc1cc(C2NC(=S)NC(C)=C2C(=O)Nc2ccccc2)ccc1O (stereo not drawn)	inconclusive: 89.1 µM [inhibitor, single point]
